Measured values taken from patent US20170320946A1.
No constants are given. Whether binding was seen depends on the method and setting. Binding seen in cells or lysates may run through a third protein. Some binding calls cover weakened binding; strength is not graded here.

The chains behind the UniProt entries cited, without tags or fusion partners. Where a name states a change or a piece, a line headed by the entry shows the natural chain unless it says otherwise. Residues count along the entry.
UniProt O43914, residues 22-113: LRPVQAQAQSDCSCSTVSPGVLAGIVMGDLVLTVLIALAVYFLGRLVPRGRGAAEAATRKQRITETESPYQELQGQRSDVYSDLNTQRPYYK
UniProt Q9NP99: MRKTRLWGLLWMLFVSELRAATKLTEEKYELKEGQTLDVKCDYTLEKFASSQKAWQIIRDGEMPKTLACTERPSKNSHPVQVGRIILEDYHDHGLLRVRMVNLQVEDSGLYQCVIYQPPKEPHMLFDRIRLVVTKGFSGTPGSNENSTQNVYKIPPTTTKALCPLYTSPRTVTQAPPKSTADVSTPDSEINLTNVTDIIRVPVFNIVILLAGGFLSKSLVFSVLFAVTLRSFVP

Target: DAP12 (human) (UniProt O43914)
Test: co-immunoprecipitation from pervanadate-treated monocytes, anti-DAP12 blot

- binding: binds
Substance: human TREM-1 on blood monocytes and neutrophils (from UniProt Q9NP99 17-234) (receptor)
